Screening data, single-dose tests

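Whole-parasite assay of Trypanosoma brucei over 72 hours; the read-out is not stated. Compounds at 10 µM. The record gives no direction; compounds that gave an IC50 in retests scored well above the rest, so higher reads as stronger inhibition. Values scatter widely below zero; nearly all retest evidence comes from the higher of the two concentrations used. Of about 2,700 compounds tested this way, about 14 (0.51%) reached 50% or more in at least one test.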

The filed quantity is “Percent Effect” (%). The controls that fix the scale are not given in the record; negative values are as filed. Compounds were drawn at random from those tested, without regard to their results.

{"structure": "CCc1nc(CN(C(C)=O)C2CCN(CCc3ccccc3)C2)no1", "stereo": "stereo unspecified", "Percent Effect": -54.25}
{"structure": "CCn1c(C(=O)N2CCCN(CC(N)=O)CC2)cc2ccccc21", "Percent Effect": -26.92}
{"structure": "Cc1cnn(CC2CCCN2C(=O)c2ccc(F)c(F)c2)c1", "stereo": "stereo unspecified", "Percent Effect": -33.51}
{"structure": "Fc1ccc(-c2nc(CN3CCn4c(nnc4C4CC4)C3)co2)cc1", "Percent Effect": -20.51}
{"structure": "NC(=O)Cn1cc(NC(=O)N2CCC(c3ccccc3)CC2)cn1", "Percent Effect": -17.78}
{"structure": "CN(C)c1cc(CNC(=O)c2cc(Cl)ccn2)ccn1", "Percent Effect": -43.86}
{"structure": "COc1c(CNCc2ccc(C(=O)N(C)C(C)C)cc2)c(C)nn1C", "Percent Effect": -22.99}
{"structure": "Cc1nnc2n1CCN(Cc1ccc3c(c1)OCCO3)C2", "Percent Effect": -24.74}
{"structure": "CC(=O)Nc1nc(C(=O)NCc2ccc(N3CCOC(C)C3)nc2)cs1", "stereo": "stereo unspecified", "Percent Effect": -0.1155}
{"structure": "CN(C)c1ccc(C(=O)NCCCNc2ccc(C(F)(F)F)cn2)cc1", "Percent Effect": -16.69}
{"structure": "CCc1nnc(CNC2CCCN(Cc3noc(C4CC4)n3)C2)o1", "stereo": "stereo unspecified", "Percent Effect": -43.93}
{"structure": "OC(COCc1ccccc1Cl)CN1CCC(c2ccn[nH]2)CC1", "stereo": "stereo unspecified", "Percent Effect": 17.51}
{"structure": "Cc1cc(CN2CCC(N(C)Cc3noc(C4CC4)n3)C2)on1", "stereo": "stereo unspecified", "Percent Effect": 2.088}
{"structure": "Cc1cn2nc(N3CCN(Cc4nc(C(C)C)no4)CC3)sc2n1", "Percent Effect": -49.41}
{"structure": "CCc1nc(C2CCCN(C(=O)c3ccc(F)cc3)C2)no1", "stereo": "stereo unspecified", "Percent Effect": -67.21}
{"structure": "CC(=O)NCCNC(=O)c1sc(-c2ccc(Cl)cc2)nc1C", "Percent Effect": -76.66}
{"structure": "COc1cc(C(=O)Nc2nc(C)no2)cc(Cl)c1OC", "Percent Effect": -54.4}
{"structure": "CN(C(=O)c1ccc(-n2ncc(C#N)c2N)cc1)C1CCCC1", "Percent Effect": -34.16}
{"structure": "c1ccc(-n2ccc(CN3CCOC(Cn4cncn4)C3)n2)cc1", "stereo": "stereo unspecified", "Percent Effect": -2.695}
{"structure": "CCn1ncc2c1CCCC2NCc1cc(C)ccc1OC", "stereo": "stereo unspecified", "Percent Effect": -9.244}
{"structure": "Cc1cccc(C(=O)N2CCN(C(=O)Cc3ccccn3)CC2)c1C", "Percent Effect": -19.07}
{"structure": "O=C(CN1CCOC(Cn2cccn2)C1)NCc1ccccn1", "stereo": "stereo unspecified", "Percent Effect": -30.93}
{"structure": "Cc1nc(C)n(C2CCCN(C(=O)c3ccnc(N(C)C)c3)C2)n1", "stereo": "stereo unspecified", "Percent Effect": -26.79}
{"structure": "CS(=O)(=O)NCC1CCCN(C(=O)CCCc2ccccc2)C1", "stereo": "stereo unspecified", "Percent Effect": -64.6}
{"structure": "COc1ccc(-c2nc(CN3CCc4cncnc4C3)no2)cc1", "Percent Effect": -81.93}
{"structure": "Cc1cn2nc(N3CCN(Cc4cc(C)on4)CC3)sc2n1", "Percent Effect": 3.937}
{"structure": "COc1c(C2CCCN2C(=O)c2ccc3[nH]cnc3c2)c(C)nn1C", "stereo": "stereo unspecified", "Percent Effect": -31.39}
{"structure": "c1ccc(-n2ccc(CN3CCCC3Cn3cncn3)n2)cc1", "stereo": "stereo unspecified", "Percent Effect": -54.26}
{"structure": "COc1ccc(C(=O)N(C)Cc2nnc3ccccn23)c(OC)c1OC", "Percent Effect": -47.23}
{"structure": "COc1c(CNC2CCc3cc(F)ccc32)c(C(C)C)nn1C", "stereo": "stereo unspecified", "Percent Effect": -26.84}
{"structure": "CC1CN(CC(=O)NC2CCOCC2)CCN1Cc1nccn1C", "stereo": "stereo unspecified", "Percent Effect": -38.38}
{"structure": "Cc1cc(OCC(=O)N2CCCC(c3nccs3)C2)no1", "stereo": "stereo unspecified", "Percent Effect": -37.25}
{"structure": "CCc1nc(C2CCCN2C(=O)c2cc[nH]n2)no1", "stereo": "stereo unspecified", "Percent Effect": -9.958}
{"structure": "CS(=O)(=O)N1CCC(NC(=O)COc2ccc(Br)cc2Cl)CC1", "Percent Effect": -26.36}
{"structure": "CC1CN(C)CCN1CC(=O)NCCOc1ccc2c(c1)OCO2", "stereo": "stereo unspecified", "Percent Effect": -55.08}

For reference, 4 entries once more:

| structure | Percent Effect |
|---|---|
| `Cc1cn2nc(N3CCN(Cc4cc(C)on4)CC3)sc2n1` | 3.937% |
| `COc1ccc(C(=O)N(C)Cc2nnc3ccccn23)c(OC)c1OC` | -47.23% |
| `CC(=O)Nc1nc(C(=O)NCc2ccc(N3CCOC(C)C3)nc2)cs1` (stereo unspecified) | -0.1155% |
| `Cc1nc(C)n(C2CCCN(C(=O)c3ccnc(N(C)C)c3)C2)n1` (stereo unspecified) | -26.79% |

Measurements from “University of Dundee, Small-Polar-MMV Screening Library” (2021), ChEMBL document CHEMBL3988442.